For at least one compound, name, drawing or mass did not settle the structure.
System: human hepatitis B virus
Experiment: Hep G2 cells transfected with human hepatitis B virus, cellular DNA dot hybridized with HBV DNA probe
Type: cell-based
Conditions: 14 days

Nc1nc(N)c2ncn([C@H]3CC[C@@H](CO)O3)c2n1 [ddDAPR, 2,6-diaminopurine-9-β-D-2′,3′-dideoxyribofuranoside]
HBV Activity at 10 μg/ml: +

Reference: patent USRE39155E1, “Use of 1,3-oxathiolane nucleoside analogues in the treatment of hepatitis B” (Shire BioChem Inc., priority 1991, dated 2006)
